Source: patent US4801614A, “Process for using endogenous enkephalins and endorphins to inhibit growth of tumerous cells” (TNI Pharmaceuticals, Inc., priority 1987, dated 1989)
Not every detail of the peptide structures is certain; ends, links or a residue may be inferred.

How the values were obtained:
total T-cell rosettes [1] = experiment: Total rosettes, blood from normal volunteers, in vitro; type: cell-based, human; conditions: for Total Rosettes (Means ± s.e.): untreated 59.9 ± 3.1
active T-cell rosettes = experiment: Active rosettes, lymphocytes from lymphoma patients, in vitro; type: cell-based, human
K-562 tumor cell line = experiment: NK cell activity (51Cr release) of peripheral blood lymphocytes from normal volunteers incubated with enkephalin; type: cell-based, human
total T-cell rosettes [2] = experiment: Total T-cell rosettes after 30 minute i.v. infusion in normal human volunteers; type: in vivo; conditions: for Total T-Cell Rosettes: Fifty Micrograms/kg
T-cell subsets = experiment: Lung cancer patient, i.v. infusions (regimen as AIDS patient): T cells, subsets, lymphocytes; type: in vivo, human

Question: Which results are given for CSCC[C@H](NC(=O)[C@H](Cc1ccccc1)NC(=O)CNC(=O)CNC(=O)[C@@H](N)Cc1ccc(O)cc1)C(=O)O [Methionine-Enkephalin, Tyr--Gly--Gly--Phe--Met]?
Answer: Total Rosettes (Means ± s.e.) (total T-cell rosettes [1]; 10^-2 mg/cc.): 59.9 ± 3.4; Total Rosettes (Means ± s.e.) (total T-cell rosettes [1]; 10^-6 mg/cc.): 63.5 ± 2.7; Total Rosettes (Means ± s.e.) (total T-cell rosettes [1]; 10^-10 mg/cc.): 58.0 ± 3.5; Total Rosettes (Means ± s.e.) (total T-cell rosettes [1]; 10^-14 mg/cc.): 60.4 ± 3.4; effect on total T-cell rosettes (total T-cell rosettes [1]; normal volunteers): neither enkephalin alters total T-cell rosettes; Percentages of Active Rosettes After Incubation (active T-cell rosettes; 10^-2 mg): 46.6 ± 4.2%; Percentages of Active Rosettes After Incubation (active T-cell rosettes; 10^-6 mg): 49.0 ± 4.6%; Percentages of Active Rosettes After Incubation (active T-cell rosettes; 10^-10 mg): 46.8 ± 3.0%; Percentages of Active Rosettes After Incubation (active T-cell rosettes; 10^-14 mg): 48.5 ± 5.6%; effect on active rosettes (active T-cell rosettes; lymphoma patients, 10^-2 to 10^-14 mg/cc): Significant increases in active rosettes; concentrations with significant increase in NK activity (K-562 tumor cell line; normal individuals with naturally low NK activity, 11:1): 10^-6 mg/ml; effect on NK cell activity (K-562 tumor cell line; normal volunteers, 10^-4 to 10^-14 mg/ml, FIGS. 1 and 2): enhanced NK cell activity of all concentrations tested; Total T-Cell Rosettes (total T-cell rosettes [2]; Volunteer #5, 2 hours, controls 48%): 64%; Total T-Cell Rosettes (total T-cell rosettes [2]; Volunteer #5, 24 hours, controls 48%): 59%; Total T-Cell Rosettes (total T-cell rosettes [2]; Volunteer #6, 2 hours, controls 59%): 63%; Total T-Cell Rosettes (total T-cell rosettes [2]; Volunteer #6, 24 hours, controls 59%): 65%; Total T-Cell Rosettes MEAN VALUE (total T-cell rosettes [2]; Volunteer No. 1, 0.01 mg/kg, 2 hours, controls 62/200): 123/200; Total T-Cell Rosettes % Increase (total T-cell rosettes [2]; Volunteer No. 1, 0.01 mg/kg, 24 hours): 82%; Total T-Cell Rosettes MEAN VALUE (total T-cell rosettes [2]; Volunteer No. 1, 0.01 mg/kg, 24 hours, controls 62/200): 113/200; Total T-Cell Rosettes % Increase (total T-cell rosettes [2]; Volunteer No. 2, 0.01 mg/kg, 2 hours): 4%; Total T-Cell Rosettes MEAN VALUE (total T-cell rosettes [2]; Volunteer No. 2, 0.01 mg/kg, 2 hours, controls 113/20): 117/200; Total T-Cell Rosettes % Increase (total T-cell rosettes [2]; Volunteer No. 2, 0.01 mg/kg, 24 hours): 9%; Total T-Cell Rosettes MEAN VALUE (total T-cell rosettes [2]; Volunteer No. 2, 0.01 mg/kg, 24 hours, controls 113/20): 123/200; change in total T-cell rosettes (total T-cell rosettes [2]; Volunteer No. 2, 10 micrograms/kg): Only slight increases; change in total T-cell rosettes (total T-cell rosettes [2]; Volunteer No. 3, 0.001 mg/kg): Essentially no change; Total T-Cell Rosettes % Increase (total T-cell rosettes [2]; Volunteer No. 3, 0.001 mg/kg, 2 hours): 6%; Total T-Cell Rosettes MEAN VALUE (total T-cell rosettes [2]; Volunteer No. 3, 0.001 mg/kg, 2 hours, controls 100/200): 106/200; Total T-Cell Rosettes % Increase (total T-cell rosettes [2]; Volunteer No. 3, 0.001 mg/kg, 24 hours): 8%; Total T-Cell Rosettes MEAN VALUE (total T-cell rosettes [2]; Volunteer No. 3, 0.001 mg/kg, 24 hours, controls 100/200): 108/200; change in total T-cell rosettes (total T-cell rosettes [2]; Volunteer No. 4, 0.001 mg/kg): no significant change; Total T-Cell Rosettes % Increase (total T-cell rosettes [2]; Volunteer No. 4, 0.001 mg/kg, 2 hours): 4%; Total T-Cell Rosettes MEAN VALUE (total T-cell rosettes [2]; Volunteer No. 4, 0.001 mg/kg, 2 hours, controls 116/200): 124/200; Total T-Cell Rosettes % Decrease (total T-cell rosettes [2]; Volunteer No. 4, 0.001 mg/kg, 24 hours): 3%; Total T-Cell Rosettes MEAN VALUE (total T-cell rosettes [2]; Volunteer No. 4, 0.001 mg/kg, 24 hours, controls 116/200): 110/200; Active T cells Absolute (T-cell subsets; day 1): 707 /mm^3; Active T cells Percent (T-cell subsets; day 1): 52%; Lymphocytes (T-cell subsets; day 1): 1360 /mm^3; T Helper cells (OKT 4) Percent (T-cell subsets; day 1): 36%; T Lymphocytes (OKT 3) Absolute (T-cell subsets; day 1): 870 /mm^3; T Lymphocytes (OKT 11) Absolute (T-cell subsets; day 1): 1047 /mm^3; T Lymphocytes (OKT 11) Percent (T-cell subsets; day 1): 77%; T Suppressor cells (OKT 8) Percent (T-cell subsets; day 1): 20%; T helper cells (OKT 4) Absolute (T-cell subsets; day 1): 489 /mm^3; T suppressor cells (OKT 8) Absolute (T-cell subsets; day 1): 272 /mm^3; Active T cells Absolute (T-cell subsets; day 2): 587 /mm^3; Active T cells Percent (T-cell subsets; day 2): 54%; Lymphocytes (T-cell subsets; day 2): 1088 /mm^3; Active T cells Absolute (T-cell subsets; day 3): 664 /mm^3; Active T cells Percent (T-cell subsets; day 3): 34%; Lymphocytes (T-cell subsets; day 3): 1952 /mm^3; Active T cells Absolute (T-cell subsets; day 4): 639 /mm^3; Active T cells Percent (T-cell subsets; day 4): 43%; Lymphocytes (T-cell subsets; day 4): 1488 /mm^3; Active T cells Absolute (T-cell subsets; day 5): 460 /mm^3; Active T cells Percent (T-cell subsets; day 5): 23%; Lymphocytes (T-cell subsets; day 5): 2002 /mm^3; Active T cells Absolute (T-cell subsets; day 8): 1183 /mm^3; Active T cells Percent (T-cell subsets; day 8): 58%; Lymphocytes (T-cell subsets; day 8): 2040 /mm^3; T Helper cells (OKT 4) Percent (T-cell subsets; day 8): 28%; T Lymphocytes (OKT 3) Absolute (T-cell subsets; day 8): 959 /mm^3; T Lymphocytes (OKT 3) Percent (T-cell subsets; day 8): 47%; T Lymphocytes (OKT 11) Absolute (T-cell subsets; day 8): 1020 /mm^3; T Lymphocytes (OKT 11) Percent (T-cell subsets; day 8): 50%; T helper cells (OKT 4) Absolute (T-cell subsets; day 8): 571 /mm^3; T suppressor cells (OKT 8) Absolute (T-cell subsets; day 8): 347 /mm^3; Active T cells Absolute (T-cell subsets; day 11): 572 /mm^3; Active T cells Percent (T-cell subsets; day 11): 30%; Lymphocytes (T-cell subsets; day 11): 1908 /mm^3; Active T cells Absolute (T-cell subsets; day 15): 686 /mm^3; Active T cells Percent (T-cell subsets; day 15): 40%; Lymphocytes (T-cell subsets; day 15): 176 /mm^3; Active T cells Absolute (T-cell subsets; day 18): 316 /mm^3; Active T cells Percent (T-cell subsets; day 18): 16%; Lymphocytes (T-cell subsets; day 18): 1974 /mm^3; Active T cells Absolute (T-cell subsets; day 22): 685 /mm^3; Active T cells Percent (T-cell subsets; day 22): 36%; Lymphocytes (T-cell subsets; day 22): 1904 /mm^3; Active T cells Percent (T-cell subsets; day 25): 74%; Active T cells Absolute (T-cell subsets; day 29): 732 /mm^3; Active T cells Percent (T-cell subsets; day 29): 40%; Lymphocytes (T-cell subsets; day 29): 1830 /mm^3; T Helper cells (OKT 4) Percent (T-cell subsets; day 29): 44%; T Lymphocytes (OKT 3) Absolute (T-cell subsets; day 29): 985 /mm^3; T Lymphocytes (OKT 3) Percent (T-cell subsets; day 29): 67%; T Lymphocytes (OKT 11) Absolute (T-cell subsets; day 29): 1088 /mm^3; T Lymphocytes (OKT 11) Percent (T-cell subsets; day 29): 74%; T Suppressor cells (OKT 8) Percent (T-cell subsets; day 29): 22%; T helper cells (OKT 4) Absolute (T-cell subsets; day 29): 647 /mm^3; T suppressor cells (OKT 8) Absolute (T-cell subsets; day 29): 323 /mm^3; Active T cells Absolute (T-cell subsets; day 32): 727 /mm^3; Active T cells Percent (T-cell subsets; day 32): 23%; Lymphocytes (T-cell subsets; day 32): 3159 /mm^3; Active T cells Absolute (T-cell subsets; day 36): 755 /mm^3; Active T cells Percent (T-cell subsets; day 36): 52%; Lymphocytes (T-cell subsets; day 36): 1452
